Results reported in US20260176260A1, “DUAL RAF AND TUBULIN INHIBITORS AND METHODS OF USE THEREOF” (Deciphera Pharmaceuticals, LLC, priority 2023, published 2026).
Read-outs that look alike come from different tables or passages of the source. The match of structure and compound is tentative.

Protein sequences, listed by entry. Tags and fused reporters are not part of them. Residues count along the entry.
UniProt P15056, 416-766: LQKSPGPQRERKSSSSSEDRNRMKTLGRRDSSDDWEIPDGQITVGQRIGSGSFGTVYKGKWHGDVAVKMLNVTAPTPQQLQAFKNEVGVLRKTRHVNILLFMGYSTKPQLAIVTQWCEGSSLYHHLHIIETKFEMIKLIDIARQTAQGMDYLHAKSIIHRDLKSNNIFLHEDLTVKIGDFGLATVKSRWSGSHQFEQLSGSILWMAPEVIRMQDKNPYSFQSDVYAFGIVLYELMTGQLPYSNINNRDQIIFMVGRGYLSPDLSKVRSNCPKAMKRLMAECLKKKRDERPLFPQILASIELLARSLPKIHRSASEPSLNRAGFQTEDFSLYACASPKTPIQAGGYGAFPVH
UniProt P04049, 307-648 Y340D/Y341D: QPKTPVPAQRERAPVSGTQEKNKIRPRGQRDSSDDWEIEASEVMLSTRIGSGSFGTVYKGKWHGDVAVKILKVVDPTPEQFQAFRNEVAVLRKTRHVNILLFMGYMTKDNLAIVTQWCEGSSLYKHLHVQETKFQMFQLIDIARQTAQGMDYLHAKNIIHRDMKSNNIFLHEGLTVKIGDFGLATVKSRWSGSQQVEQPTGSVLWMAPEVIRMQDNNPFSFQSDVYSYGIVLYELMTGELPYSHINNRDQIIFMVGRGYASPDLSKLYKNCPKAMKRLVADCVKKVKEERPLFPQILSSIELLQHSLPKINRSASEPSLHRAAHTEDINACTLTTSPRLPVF

Tests used:
MiaPaca-2 cells = experiment: MiaPaca-2 cell proliferation assay (resazurin); conditions: read-out: MiaPaca-2
B-Raf kinase = B-Raf kinase (Homo sapiens, UniProt P15056); experiment: Biochemical assay for B-Raf (coupled pyruvate kinase/lactate dehydrogenase); conditions: read-out: BRAF
HPAF-II cells = experiment: HPAF-II cell proliferation assay (resazurin); conditions: read-out: HPAF-II
Pa16c cells = experiment: Pa16c cell proliferation assay (resazurin); conditions: read-out: Pa16c; Table 2, inhibition of cell proliferation
HCT-116 cells = experiment: HCT-116 cell proliferation assay (resazurin); conditions: read-out: HCT-116
C-Raf kinase = C-Raf kinase (Homo sapiens, UniProt P04049, Y340D/Y341D); experiment: Biochemical assay for C-Raf (coupled pyruvate kinase/lactate dehydrogenase); conditions: read-out: CRAF
[1] = Table 2, inhibition of cell proliferation
[2] = Table 1, inhibition of biochemical activity

Measured: IC50

CNC(=O)c1cc(-c2cc(-c3cc(NC(=O)c4ccc(C(F)(F)F)nc4)ccc3C)ccn2)ccn1
< 100 nM: C-Raf kinase; [2] | C-Raf kinase; Table 3
100 to 500 nM: MiaPaca-2 cells; [1] | MiaPaca-2 cells; Table 3 | B-Raf kinase; [2] | B-Raf kinase; Table 3 | HPAF-II cells; [1] | HPAF-II cells; Table 3 | HCT-116 cells; [1] | HCT-116 cells; Table 3
1000 to 10000 nM: Pa16c cells
